Measurements as given in PubChem BioAssay AID485314 (National Center for Advancing Translational Sciences (NCATS), 2010).
The whole screen tested about 340,000 compounds, of which about 4,500 (1.3%) were called active. This list was built around the results that the source calls inconclusive (neither active nor inactive); the mix of calls is not that of the screen. Calls follow the shape of the dose curve; as a rule, active = well fitted inhibition curve with a large enough effect; inconclusive = small, poorly fitted or top-dose-only effect, or another doubt; inactive = no such curve, though single readings can be large or run the other way. Potencies of inconclusive entries are doubtful fits and often do not repeat.

What follows are compounds tested against DNA polymerase beta (Homo sapiens) (UniProt P06746) (assay: qHTS Assay for Inhibitors of DNA Polymerase Beta). Settings: Pol beta primer extension/strand displacement, fluorescence kinetic; activity change, negative = inhibition: at 114 µM (top of the series).
How it was run: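 10 nM enzyme + cpd, 15 min RT; start with substrate 50 nM final; read 0 min and after 10 min RT. Corrected, normalized data; 4-parameter Hill curve fit.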
% is scaled to controls: 0 for no effect and ±100 for the full control effect; potency is read from the fitted curve at half-maximal effect.

| Compound | Potency | activity change, negative = inhibition |
| --- | --- | --- |
| COc1cc(/C=C2\SC(=S)N(C(Cc3ccccc3)C(=O)O)C2=O)ccc1O (centres undefined) | active: 50.1 µM | – |
| N/C(=C\C(=O)c1cc(Cl)ccc1O)C(Cl)(Cl)Cl | inactive | – |
| CCOc1cc(C(=O)Nc2nnc(S(=O)(=O)N3CCOCC3)s2)cc(OCC)c1OCC | inconclusive: 0.178 µM [inhibitor, full curve] | – |
| CCn1cc(C(=O)NCCN(CC(C)C)CC(C)C)c(=O)c2cc(S(=O)(=O)N(C)C3CCCCC3)ccc21 | inactive | – |
| Cc1ccc(C)c(/C(O)=C2\C(=O)C(=O)N(Cc3cccnc3)C2c2cccnc2)c1 (centres undefined) | inconclusive: 39.8 µM [inhibitor, partial curve, poor fit] | – |
| Cc1ccc(C(=O)NC(=S)N(C)C2CCCCC2)cc1 | inconclusive: 0.316 µM [inhibitor, full curve, poor fit] | – |
| COC(=O)c1ccc2c(=O)n(CCc3ccc(S(N)(=O)=O)cc3)c(SCC(=O)C(C)(C)C)nc2c1 | inactive | – |
| Cc1cccc(C(=O)N2c3ncnn3C3(CCCCC3)[C@@H]3CCCC[C@@H]32)c1 | inconclusive: 89.1 µM [inhibitor, single point] | – |
| Cc1cccc(Nc2cc(C)nc(-n3nc(C)cc3C)n2)c1 | inconclusive: 79.4 µM [inhibitor, single point] | – |
| Cc1cccc(NCC(=O)N/N=C/c2ccc(Br)cc2)c1 | inconclusive: 89.1 µM [inhibitor, single point] | – |
| Cc1cc(Br)ccc1N=C1NC(=O)CS1 | inactive | – |
| COc1ccccc1C(=O)Nc1ccccc1C(=O)NC1CCCCC1 | inconclusive: 39.8 µM [inhibitor, single point] | – |
| COc1cccc(NC(=O)/C(C#N)=C/c2c(C)n(Cc3ccccc3)c3ccccc23)c1 | – | inconclusive: -33.9% [inhibitor] |
| CC(OC(=O)c1ccc(S(=O)(=O)NCc2ccco2)cc1)C(=O)Nc1ccc(Cl)cn1 (centres undefined) | inconclusive: 20 µM [inhibitor, full curve] | – |
| O=C(NN=C1CCCC1)c1ccccc1[N+](=O)[O-] | inactive | – |
| COc1cc(C)c(C(=O)Oc2cc(C)c(C(=O)O)c(O)c2C)c(OC)c1C | inconclusive: 79.4 µM [inhibitor, single point] | – |
| Cc1cccn2c(=O)c3cc(C#N)c(=O)n(-c4nnc(SCc5ccc(F)cc5)s4)c3nc12 | inactive | – |
| Cn1c(SCC(=O)Nc2nc3ccccc3s2)ncc(C(=O)Nc2ccc(Cl)cc2)c1=O | inactive | – |
| Cc1[nH]c2ccc(C(=O)Nc3ccncc3)cc2c1C | inconclusive: 20 µM [inhibitor, full curve] | – |
| O=C(c1ccccc1)N1CCCCC(S(=O)(=O)c2ccccc2)C1=O (centres undefined) | inactive | – |
| COC(=O)n1c(=S)oc2cc(Cl)ccc21 | inactive | – |
| CC(=O)c1ccc(C(=O)N2CCCC(CO)(Cc3ccccc3C)C2)s1 (centres undefined) | inconclusive: 79.4 µM [inhibitor, single point] | – |
| COc1cccc(OC(=O)CSc2nnc(-c3cccs3)o2)c1 | inconclusive: 28.2 µM [inhibitor, full curve] | – |

Taken from above.
Value of Cc1cccn2c(=O)c3cc(C#N)c(=O)n(-c4nnc(SCc5ccc(F)cc5)s4)c3nc12 under Potency: inactive
Value of CCOc1cc(C(=O)Nc2nnc(S(=O)(=O)N3CCOCC3)s2)cc(OCC)c1OCC under Potency: inconclusive: 0.178 µM [inhibitor, full curve]
Value of N/C(=C\C(=O)c1cc(Cl)ccc1O)C(Cl)(Cl)Cl under Potency: inactive

Continued:

| Compound | Potency | activity change, negative = inhibition |
| --- | --- | --- |
| Cc1c(Cl)cnc(NC(=O)COC(=O)c2cccc(S(=O)(=O)N3CCc4ccccc4C3)c2)c1Cl | inconclusive: 31.6 µM [inhibitor, partial curve] | – |
| OC(COC(c1ccccc1)c1ccccc1)CN1CCOCC1 (centres undefined) | inconclusive: 89.1 µM [inhibitor, single point] | – |
| Cc1cccc(C(=O)Nc2cc3nn(-c4ccc(C(C)C)cc4)nc3cc2C)c1 | inconclusive: 79.4 µM [inhibitor, single point] | – |
| CCCCCCNC(=O)c1c[nH]c2ccc(S(=O)(=O)N(C)c3ccc(C(C)C)cc3)cc2c1=O | inconclusive: 25.1 µM [inhibitor, single point] | – |
| Cc1nc2ccccn2c1C(=O)NC1CCCC1 | inconclusive: 6.31 µM [inhibitor, partial curve, poor fit] | – |
| O=C(C1CCC(Cn2c(=O)c3sccc3n(Cc3cccc(F)c3)c2=O)CC1)N1CCOCC1 (centres undefined) | inactive | – |
| CCCCN(C)S(=O)(=O)c1ccc(NC2=NS(=O)(=O)c3ccccc32)cc1 | inactive | – |
| N#Cc1c(-c2ccccc2Cl)cc(-c2ccccc2)[nH]c1=S | inconclusive: 39.8 µM [inhibitor, partial curve] | – |
| Cc1csc(SCCn2c(Br)nc3c2c(=O)[nH]c(=O)n3C)n1 | inconclusive: 35.5 µM [inhibitor, single point] | – |
| O=C(Nc1sc2c(c1C(=O)O)CCCC2)c1cccs1 | inconclusive: 1.41 µM [inhibitor, full curve] | – |
| Cc1ccc(NC(=O)Cn2cc(C(=O)c3ccco3)c3ccccc32)cc1C | inconclusive: 15.8 µM [inhibitor, full curve] | – |
| COc1ccc(C2C=C(c3ccc(F)cc3)NC(=S)N2)cc1OC (centres undefined) | inconclusive: 79.4 µM [inhibitor, single point] | – |
| C=CCc1cccc2cc(C(=O)Nc3ccccc3C(=O)O)c(=O)oc12 | inconclusive: 1.26 µM [inhibitor, full curve, poor fit] | – |
| COc1ccccc1NC(=O)CSc1ccc(-c2ccco2)nn1 | inconclusive: 39.8 µM [inhibitor, single point] | – |
| COc1ccc(NC(=O)CC2C(=O)OCC3CCCCN32)cc1Cl (centres undefined) | inconclusive: 25.1 µM [inhibitor, single point] | – |
| Cc1ccc(/C=C/C(=O)N2CCC(c3nc4ccccc4o3)CC2)cc1 | inactive | – |
| CC(C)Cc1ccc(S(=O)(=O)NCc2nc3cccnc3n2Cc2ccccc2)cc1 | inconclusive: 89.1 µM [inhibitor, single point] | – |
| CCCCc1cc2c(cn1)=C(OC(=O)c1cnc3ccccc3n1)C(C)(OC(=O)CC)C(=O)C=2 (centres undefined) | inactive | – |
| COCCSc1ccccc1C(=O)Nc1ccc(Cl)cc1 | inactive | – |
| Cc1nn(CC(=O)NCCc2ccccc2)c(=O)c2nn(-c3ccccc3)c(C)c12 | inactive | – |
| CCN(CCO)c1nc(SC)nc2c1sc1nc(-c3ccco3)c3c(c12)CCC3 | active: 7.08 µM | – |
| CCc1nc2sc3c(c2c(=O)n1NC(=O)CCl)CCCC3 | inconclusive: 89.1 µM [inhibitor, single point] | – |
| Cc1c(N=C2NC(=O)C(CC(=O)Nc3ccc(Cl)cc3)S2)c(=O)n(-c2ccccc2)n1C (centres undefined) | inconclusive: 35.5 µM [inhibitor, single point] | – |

Full records, quoted from the list.
O=C(C1CCC(Cn2c(=O)c3sccc3n(Cc3cccc(F)c3)c2=O)CC1)N1CCOCC1 (centres undefined) is listed as Potency: inactive
Cc1csc(SCCn2c(Br)nc3c2c(=O)[nH]c(=O)n3C)n1 is listed as Potency: inconclusive: 35.5 µM [inhibitor, single point]

(list continues)

| Compound | Potency | activity change, negative = inhibition |
| --- | --- | --- |
| NC(=O)N/N=C/c1cc(Br)ccc1OCC(=O)NCc1ccccc1 | inconclusive: 89.1 µM [inhibitor, single point] | – |
| CCOc1cc(/C=C2\C(=N)N3N=C(S(C)(=O)=O)SC3=NC2=O)ccc1OCCOc1cccc(OC)c1 | inconclusive: 31.6 µM [inhibitor, single point] | – |
| COC(=O)c1ccc(C(=O)OC)c(NC(=O)c2c(-c3ccccc3)noc2C)c1 | inactive | – |
| COc1ccc(OCc2nnc(SCC(=O)NCc3ccco3)o2)cc1 | inactive | – |
| Cc1ccc(C(=O)NCC(c2cccs2)S(=O)(=O)c2ccccc2)cc1C (centres undefined) | inconclusive: 44.7 µM [inhibitor, partial curve, poor fit] | – |
| CC(C)CCNC(=O)c1ccc2nc(CCc3ccccc3)oc2c1 | inactive | – |
| CC(=O)c1ccccc1NS(=O)(=O)c1cccc2nsnc12 | active: 25.1 µM | – |
| Cc1ccc(NC(=O)c2c3c(nc4ccccc24)C(=O)N(C2CCCCC2)C3)cc1F | inconclusive: 79.4 µM [inhibitor, single point] | – |
| CC(NC(=O)/C(=C\c1ccco1)NC(=O)c1ccccc1Br)C(=O)O (centres undefined) | inconclusive: 44.7 µM [inhibitor, partial curve, poor fit] | – |
| CCOC(=O)c1c(NC(=O)CSc2nc(-c3ccc(OC)cc3)cc(C(F)(F)F)n2)sc(C)c1C | inconclusive: 0.141 µM [inhibitor, full curve, poor fit] | – |
| CC(=O)c1nc2ccccc2n1CCc1ccccc1 | inconclusive: 0.141 µM [inhibitor, full curve, poor fit] | – |
| CCCC1Cc2nc(Cl)c(C#N)cc2CO1 (centres undefined) | active: 44.7 µM | – |
| CCOc1ccc(NC(=S)NC(=O)c2cnn(CC)c2)c([N+](=O)[O-])c1 | inconclusive: 12.6 µM [inhibitor, partial curve] | – |
| O=C(CN1C(=O)/C(=C\C=C\c2ccccc2)SC1=S)Nc1ccc(F)cc1 | inactive | – |
| CCOC(=O)Cc1c(C)nc2cc(-c3ccc(C(C)(C)C)cc3)nn2c1C | inconclusive: 6.31 µM [inhibitor, single point] | – |
| CCc1ccc(NC(=O)C2CCCN2S(=O)(=O)c2ccc3nc(-c4ccccc4)[nH]c3c2)cc1 (centres undefined) | active: 12.6 µM | – |
| O=C1c2ccccc2N2C(=O)c3ccccc3C2N1Cc1ccco1 (centres undefined) | inconclusive: 0.1 µM [inhibitor, full curve, poor fit] | – |
| COc1ccc(OCC(=O)Nc2cccc(C(=O)OCc3cc(=O)n4nc(C)sc4n3)c2)cc1 | inconclusive: 6.31 µM [inhibitor, single point] | – |
| Cc1ccc(S(=O)(=O)N2CCOCC2)c(C)c1NS(C)(=O)=O | inactive | – |
| CCOc1ccccc1NC(=O)c1cc2cc3cc(C)ccc3nc2s1 | inactive | – |
| COc1cc2c(cc1OC)C1(Nc3c-2c(Cc2ccccc2)nn3-c2ccccc2)C(=O)Nc2ccccc21 (centres undefined) | inconclusive: 0.631 µM [inhibitor, full curve, poor fit] | – |
| Cc1ccc(NC(=O)Nc2cn(C)c(=O)c3ccccc23)c(Cl)c1 | inconclusive: 100 µM [inhibitor, single point] | – |
| CCOC(=O)C1(CCOc2ccccc2)CCN(Cc2cnc(C)[nH]2)CC1 | inconclusive: 0.447 µM [inhibitor, full curve, poor fit] | – |
